Measured values taken from the supplement of paper PMC12823440, “Inhibitors supercharge kinase turnover through native proteolytic circuits” (Nature, 2025).
Where a name gives a salt, the structure may show the parent alone. The list shows a part of the results. The calls rarely recur for the same compound in another form.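 Kinases, fused to nanoluciferase, were expressed in K562 cells; luminescence was measured every 4 h from 2 to 18 h as percent of control (DMSO = 100%, positive control = 0%). A time point is decreased if signal falls significantly (2 sigma). Hits were called by the authors by a rule that is not shown; the count of time points alone does not decide it.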

By UniProt entry, the sequences of proteins in these tests, tags left out. Where a name states a change or a piece, a line headed by the entry shows the natural chain unless it says otherwise.
UniProt Q16288, whole entry, looked up: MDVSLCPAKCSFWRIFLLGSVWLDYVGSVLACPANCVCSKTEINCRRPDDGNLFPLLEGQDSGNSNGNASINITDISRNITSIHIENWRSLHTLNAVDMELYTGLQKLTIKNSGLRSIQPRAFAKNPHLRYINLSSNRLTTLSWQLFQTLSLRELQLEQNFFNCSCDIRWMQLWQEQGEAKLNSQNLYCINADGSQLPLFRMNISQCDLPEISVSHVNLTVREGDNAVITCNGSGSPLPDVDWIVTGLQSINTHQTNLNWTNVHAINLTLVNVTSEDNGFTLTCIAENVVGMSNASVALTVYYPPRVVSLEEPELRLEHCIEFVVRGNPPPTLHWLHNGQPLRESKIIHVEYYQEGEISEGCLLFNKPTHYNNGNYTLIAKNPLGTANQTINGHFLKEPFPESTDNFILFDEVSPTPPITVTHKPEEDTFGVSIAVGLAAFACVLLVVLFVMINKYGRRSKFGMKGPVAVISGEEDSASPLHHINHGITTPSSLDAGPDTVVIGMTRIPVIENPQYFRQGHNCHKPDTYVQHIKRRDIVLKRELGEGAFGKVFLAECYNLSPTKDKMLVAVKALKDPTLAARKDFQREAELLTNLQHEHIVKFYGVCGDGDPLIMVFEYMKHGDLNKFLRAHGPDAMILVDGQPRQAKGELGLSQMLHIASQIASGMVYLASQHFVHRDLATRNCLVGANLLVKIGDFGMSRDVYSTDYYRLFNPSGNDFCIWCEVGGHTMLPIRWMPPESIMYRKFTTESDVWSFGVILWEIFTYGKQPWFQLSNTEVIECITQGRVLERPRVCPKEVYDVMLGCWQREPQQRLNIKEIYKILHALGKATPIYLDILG
UniProt Q96KB5: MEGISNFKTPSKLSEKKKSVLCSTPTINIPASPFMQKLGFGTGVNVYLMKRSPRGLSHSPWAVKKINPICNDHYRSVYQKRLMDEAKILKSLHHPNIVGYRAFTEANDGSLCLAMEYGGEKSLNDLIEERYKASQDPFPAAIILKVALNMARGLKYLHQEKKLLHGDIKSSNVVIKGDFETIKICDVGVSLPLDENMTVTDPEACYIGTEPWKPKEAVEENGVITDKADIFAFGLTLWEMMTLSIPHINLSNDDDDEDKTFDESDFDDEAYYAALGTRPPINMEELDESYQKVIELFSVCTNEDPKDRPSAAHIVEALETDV
UniProt Q15118, whole entry, looked up: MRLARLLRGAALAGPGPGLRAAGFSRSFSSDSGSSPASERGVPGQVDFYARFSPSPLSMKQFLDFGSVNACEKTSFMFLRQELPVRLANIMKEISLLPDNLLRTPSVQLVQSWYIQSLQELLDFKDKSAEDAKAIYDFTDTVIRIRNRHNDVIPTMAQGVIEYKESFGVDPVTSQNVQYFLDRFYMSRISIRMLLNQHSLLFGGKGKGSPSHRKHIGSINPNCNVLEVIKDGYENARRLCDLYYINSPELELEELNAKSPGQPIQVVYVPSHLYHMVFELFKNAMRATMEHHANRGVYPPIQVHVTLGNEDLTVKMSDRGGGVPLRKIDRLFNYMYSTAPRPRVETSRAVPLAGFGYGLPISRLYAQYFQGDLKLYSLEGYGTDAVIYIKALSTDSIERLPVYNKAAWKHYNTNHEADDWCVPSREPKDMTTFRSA
UniProt O15530: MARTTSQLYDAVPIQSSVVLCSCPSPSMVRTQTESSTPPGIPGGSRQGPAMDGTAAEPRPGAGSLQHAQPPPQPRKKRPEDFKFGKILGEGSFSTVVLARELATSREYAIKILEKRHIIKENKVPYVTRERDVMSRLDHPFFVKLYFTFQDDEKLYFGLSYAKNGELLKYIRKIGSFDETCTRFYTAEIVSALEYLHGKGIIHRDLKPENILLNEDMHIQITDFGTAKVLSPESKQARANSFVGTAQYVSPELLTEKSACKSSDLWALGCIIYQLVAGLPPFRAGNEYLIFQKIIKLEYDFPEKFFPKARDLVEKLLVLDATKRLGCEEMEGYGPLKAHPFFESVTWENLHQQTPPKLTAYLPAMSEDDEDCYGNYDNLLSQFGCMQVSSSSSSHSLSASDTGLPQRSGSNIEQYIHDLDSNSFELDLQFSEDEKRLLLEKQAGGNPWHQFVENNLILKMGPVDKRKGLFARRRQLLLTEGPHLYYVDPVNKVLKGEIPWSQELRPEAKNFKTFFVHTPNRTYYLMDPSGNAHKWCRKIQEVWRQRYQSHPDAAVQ
UniProt P42356, whole entry, looked up: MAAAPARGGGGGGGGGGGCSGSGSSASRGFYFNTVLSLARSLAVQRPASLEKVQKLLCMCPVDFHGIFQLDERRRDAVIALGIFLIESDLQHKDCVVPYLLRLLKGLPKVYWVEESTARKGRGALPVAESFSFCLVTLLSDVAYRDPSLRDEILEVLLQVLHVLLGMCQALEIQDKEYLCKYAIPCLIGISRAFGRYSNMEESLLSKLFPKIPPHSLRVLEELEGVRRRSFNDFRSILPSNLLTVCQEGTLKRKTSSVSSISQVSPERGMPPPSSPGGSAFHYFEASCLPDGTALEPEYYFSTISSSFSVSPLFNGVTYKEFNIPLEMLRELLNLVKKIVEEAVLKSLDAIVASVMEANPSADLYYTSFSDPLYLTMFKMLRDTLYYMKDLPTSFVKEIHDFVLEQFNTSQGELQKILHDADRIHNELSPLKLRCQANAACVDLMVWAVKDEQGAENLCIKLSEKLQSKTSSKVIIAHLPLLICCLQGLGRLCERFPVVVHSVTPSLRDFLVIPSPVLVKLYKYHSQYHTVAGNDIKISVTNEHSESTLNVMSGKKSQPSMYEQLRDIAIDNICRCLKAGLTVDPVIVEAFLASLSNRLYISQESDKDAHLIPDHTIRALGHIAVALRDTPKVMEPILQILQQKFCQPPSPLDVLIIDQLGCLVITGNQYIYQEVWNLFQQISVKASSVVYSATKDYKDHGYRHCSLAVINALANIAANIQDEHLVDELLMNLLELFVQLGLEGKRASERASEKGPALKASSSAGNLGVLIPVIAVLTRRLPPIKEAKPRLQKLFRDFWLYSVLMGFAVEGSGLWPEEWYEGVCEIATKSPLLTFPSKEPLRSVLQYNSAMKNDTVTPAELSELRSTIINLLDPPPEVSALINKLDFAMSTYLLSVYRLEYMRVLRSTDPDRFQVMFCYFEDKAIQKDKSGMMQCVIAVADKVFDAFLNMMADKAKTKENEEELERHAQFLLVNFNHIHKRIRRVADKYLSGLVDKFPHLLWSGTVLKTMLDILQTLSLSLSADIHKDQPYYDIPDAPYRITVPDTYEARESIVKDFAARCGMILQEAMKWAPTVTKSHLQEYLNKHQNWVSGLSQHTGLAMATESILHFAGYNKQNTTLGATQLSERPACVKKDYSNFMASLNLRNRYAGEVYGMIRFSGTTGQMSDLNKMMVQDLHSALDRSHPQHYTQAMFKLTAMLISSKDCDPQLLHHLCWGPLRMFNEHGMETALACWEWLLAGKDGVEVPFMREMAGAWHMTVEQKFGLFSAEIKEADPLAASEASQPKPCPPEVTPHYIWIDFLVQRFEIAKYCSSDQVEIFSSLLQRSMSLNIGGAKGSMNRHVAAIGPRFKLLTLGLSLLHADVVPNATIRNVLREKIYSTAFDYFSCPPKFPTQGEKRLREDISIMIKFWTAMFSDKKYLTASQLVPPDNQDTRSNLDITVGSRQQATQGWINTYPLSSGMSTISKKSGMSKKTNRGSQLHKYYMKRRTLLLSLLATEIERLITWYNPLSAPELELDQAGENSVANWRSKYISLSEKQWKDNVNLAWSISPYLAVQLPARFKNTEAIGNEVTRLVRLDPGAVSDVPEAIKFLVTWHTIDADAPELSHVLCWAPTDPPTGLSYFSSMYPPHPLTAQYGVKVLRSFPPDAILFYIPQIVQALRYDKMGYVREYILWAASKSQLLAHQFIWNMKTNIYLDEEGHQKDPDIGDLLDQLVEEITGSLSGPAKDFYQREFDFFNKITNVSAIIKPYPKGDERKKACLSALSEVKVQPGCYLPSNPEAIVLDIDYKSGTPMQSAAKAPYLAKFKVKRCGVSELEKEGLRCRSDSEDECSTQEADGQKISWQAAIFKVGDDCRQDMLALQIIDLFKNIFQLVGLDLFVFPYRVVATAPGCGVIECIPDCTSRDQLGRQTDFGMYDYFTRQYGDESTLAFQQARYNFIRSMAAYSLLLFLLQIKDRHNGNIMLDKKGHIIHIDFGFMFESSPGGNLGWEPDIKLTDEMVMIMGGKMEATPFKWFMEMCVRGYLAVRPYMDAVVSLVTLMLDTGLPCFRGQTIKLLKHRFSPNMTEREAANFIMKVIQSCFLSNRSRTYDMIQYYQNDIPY
UniProt Q9UBF8: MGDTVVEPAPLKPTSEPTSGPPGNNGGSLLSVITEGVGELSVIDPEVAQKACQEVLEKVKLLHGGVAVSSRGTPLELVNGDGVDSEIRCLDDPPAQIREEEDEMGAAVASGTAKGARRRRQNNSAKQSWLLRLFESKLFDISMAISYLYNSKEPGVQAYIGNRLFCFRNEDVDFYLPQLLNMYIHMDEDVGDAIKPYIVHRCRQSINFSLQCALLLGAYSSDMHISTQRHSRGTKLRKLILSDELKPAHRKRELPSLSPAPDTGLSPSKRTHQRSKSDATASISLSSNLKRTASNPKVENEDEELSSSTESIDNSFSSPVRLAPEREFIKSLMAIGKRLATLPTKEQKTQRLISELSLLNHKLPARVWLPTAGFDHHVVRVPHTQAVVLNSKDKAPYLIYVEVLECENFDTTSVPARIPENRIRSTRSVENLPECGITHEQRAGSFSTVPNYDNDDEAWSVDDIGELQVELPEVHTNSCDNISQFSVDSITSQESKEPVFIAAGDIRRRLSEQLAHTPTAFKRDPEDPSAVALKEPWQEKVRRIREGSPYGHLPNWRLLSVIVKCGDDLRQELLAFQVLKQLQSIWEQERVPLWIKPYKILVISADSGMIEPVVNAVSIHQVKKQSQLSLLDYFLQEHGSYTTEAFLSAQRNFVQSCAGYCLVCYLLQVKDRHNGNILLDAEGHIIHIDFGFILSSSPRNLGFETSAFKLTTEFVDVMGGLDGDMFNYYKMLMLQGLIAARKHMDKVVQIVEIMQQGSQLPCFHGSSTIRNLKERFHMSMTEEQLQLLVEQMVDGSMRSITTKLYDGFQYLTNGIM
UniProt P53350, whole entry: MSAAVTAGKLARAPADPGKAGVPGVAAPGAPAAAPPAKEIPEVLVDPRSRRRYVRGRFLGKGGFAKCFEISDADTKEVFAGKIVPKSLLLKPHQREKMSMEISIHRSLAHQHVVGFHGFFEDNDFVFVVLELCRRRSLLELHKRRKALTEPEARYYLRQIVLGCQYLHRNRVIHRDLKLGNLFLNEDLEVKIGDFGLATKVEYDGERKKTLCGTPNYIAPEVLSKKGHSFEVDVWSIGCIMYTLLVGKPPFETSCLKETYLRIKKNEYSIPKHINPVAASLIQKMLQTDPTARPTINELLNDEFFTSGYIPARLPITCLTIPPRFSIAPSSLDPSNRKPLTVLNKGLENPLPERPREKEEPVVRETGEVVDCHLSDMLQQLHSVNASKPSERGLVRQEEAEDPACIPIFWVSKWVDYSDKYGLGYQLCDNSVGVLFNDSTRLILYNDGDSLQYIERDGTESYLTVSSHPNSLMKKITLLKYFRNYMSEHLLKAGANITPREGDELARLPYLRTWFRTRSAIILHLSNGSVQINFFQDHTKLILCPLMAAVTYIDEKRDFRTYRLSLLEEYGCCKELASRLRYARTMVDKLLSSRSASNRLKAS
UniProt Q13131: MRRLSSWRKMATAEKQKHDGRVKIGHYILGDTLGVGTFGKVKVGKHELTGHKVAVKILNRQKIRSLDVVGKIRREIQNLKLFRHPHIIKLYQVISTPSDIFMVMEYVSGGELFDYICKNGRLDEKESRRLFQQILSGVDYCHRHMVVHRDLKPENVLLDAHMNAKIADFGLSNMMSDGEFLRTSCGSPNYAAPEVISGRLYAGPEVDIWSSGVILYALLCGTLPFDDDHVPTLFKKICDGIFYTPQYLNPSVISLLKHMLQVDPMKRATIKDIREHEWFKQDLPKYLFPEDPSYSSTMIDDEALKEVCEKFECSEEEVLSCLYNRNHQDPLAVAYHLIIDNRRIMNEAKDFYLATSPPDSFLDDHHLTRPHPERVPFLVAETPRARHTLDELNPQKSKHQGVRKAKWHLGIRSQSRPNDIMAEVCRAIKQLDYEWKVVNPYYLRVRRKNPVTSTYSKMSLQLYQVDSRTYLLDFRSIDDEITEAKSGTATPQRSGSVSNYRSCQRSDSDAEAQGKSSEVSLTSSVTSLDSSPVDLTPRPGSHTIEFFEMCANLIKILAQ

How the values were obtained:
Assay in all cases: number of time points (of 5) at which kinase-Nluc abundance scored as decreased, DMSO-normalised (count); higher = more persistent destabilization
Conditions in all cases: K562; 2-18 h
NTRK3 = NTRK3 (UniProt Q16288)
PAK4 = PAK4 (UniProt O96013)
PBK = PBK (UniProt Q96KB5)
PDGFRB = PDGFRB (UniProt P09619)
PDK1 = PDK1 (UniProt Q15118)
PDPK1 = PDPK1 (UniProt O15530)
PIK4CA = PIK4CA (UniProt P42356)
PIK4CB = PIK4CB (UniProt Q9UBF8)
PLK1 = PLK1 (UniProt P53350)
PRKAA1 = PRKAA1 (UniProt Q13131)

For `COc1ccc(CNc2nc(N(CCO)CCO)nc3c2ncn3C(C)C)cc1` (2.5 µM), the “number of time points” value (NTRK3) was 0, the “number of time points” value (PAK4) was 0 and the “number of time points” value (PBK) was 0. The “number of time points” value (PDGFRB) was 0, the “number of time points” value (PDK1) was 0 and the “number of time points” value (PDPK1) was 1. The “number of time points” value (PIK4CA) was 0, the “number of time points” value (PIK4CB) was 0 and the “number of time points” value (PLK1) was 0. For the same molecule, the “number of time points” value (PRKAA1) was 0.

In the case of `C=CS(=O)(=O)c1ccc(Nc2nc(OCC3CCCCC3)c3[nH]cnc3n2)cc1` (2.5 µM), the “number of time points” value (NTRK3) is reported as 0, the “number of time points” value (PAK4) is reported as 0 and the “number of time points” value (PBK) is reported as 0. For the same molecule, the “number of time points” value (PDGFRB) was 0, the “number of time points” value (PDK1) was 0 and the “number of time points” value (PDPK1) was 0. The “number of time points” value (PIK4CA) was 0, the “number of time points” value (PIK4CB) was 0 and the “number of time points” value (PLK1) was 0. The “number of time points” value (PRKAA1) was 0.

In the case of `CCCCOc1ccc(CC/C=C2\SC(=O)N(CCN)C2=O)cc1` [K145 (hydrochloride)] (2.5 µM), the “number of time points” value (NTRK3) is reported as 0, the “number of time points” value (PAK4) is reported as 0 and the “number of time points” value (PBK) is reported as 0. For the same molecule, the “number of time points” value (PDGFRB) was 0, the “number of time points” value (PDK1) was 0 and the “number of time points” value (PDPK1) was 0. For the same molecule, the “number of time points” value (PIK4CA) was 0, the “number of time points” value (PIK4CB) was 0 and the “number of time points” value (PLK1) was 0. For the same molecule, the “number of time points” value (PRKAA1) was 0.

With `OCCN(CCO)c1ccc(C(c2ccc(Cl)cc2)c2ccc(N(CCO)CCO)cc2)cc1` (10 µM) the “number of time points” value (NTRK3) was 4, the “number of time points” value (PAK4) was 0 and the “number of time points” value (PBK) was 0. For the same molecule, the “number of time points” value (PDGFRB) was 3, the “number of time points” value (PDK1) was 0 and the “number of time points” value (PDPK1) was 0. The “number of time points” value (PIK4CA) was 1, the “number of time points” value (PIK4CB) was 0 and the “number of time points” value (PLK1) was 0. The “number of time points” value (PRKAA1) was 0.

In the case of `O=C(NOCCO)c1ccc2cncn2c1Nc1ccc(I)cc1F` (10 µM), the “number of time points” value (NTRK3) is reported as 0, the “number of time points” value (PAK4) is reported as 0 and the “number of time points” value (PBK) is reported as 0. For the same molecule, the “number of time points” value (PDGFRB) was 1, the “number of time points” value (PDK1) was 0 and the “number of time points” value (PDPK1) was 2. For the same molecule, the “number of time points” value (PIK4CA) was 0, the “number of time points” value (PIK4CB) was 0 and the “number of time points” value (PLK1) was 0. The “number of time points” value (PRKAA1) was 1.

With `O=S(=O)(c1cccc2cnccc12)N1CCNCC1` (10 µM) the “number of time points” value (NTRK3) was 0, the “number of time points” value (PAK4) was 0 and the “number of time points” value (PBK) was 0. The “number of time points” value (PDGFRB) was 0, the “number of time points” value (PDK1) was 0 and the “number of time points” value (PDPK1) was 0. For the same molecule, the “number of time points” value (PIK4CA) was 0, the “number of time points” value (PIK4CB) was 0 and the “number of time points” value (PLK1) was 0. For the same molecule, the “number of time points” value (PRKAA1) was 0.

`COc1cc(C(C)=O)cc(OC)c1O` [Acetosyringone] (10 µM) was tested, and the “number of time points” value (NTRK3) was 0, the “number of time points” value (PAK4) was 0 and the “number of time points” value (PBK) was 0. The “number of time points” value (PDGFRB) was 0, the “number of time points” value (PDK1) was 0 and the “number of time points” value (PDPK1) was 0. The “number of time points” value (PIK4CA) was 0, the “number of time points” value (PIK4CB) was 0 and the “number of time points” value (PLK1) was 0. The “number of time points” value (PRKAA1) was 0.

In the case of `Nc1cccc(S(=O)(=O)N2CCCN(S(=O)(=O)c3ccc4c(c3)OCCO4)CC2)c1` (10 µM), the “number of time points” value (NTRK3) is reported as 0, the “number of time points” value (PAK4) is reported as 0 and the “number of time points” value (PBK) is reported as 0. The “number of time points” value (PDGFRB) was 0, the “number of time points” value (PDK1) was 0 and the “number of time points” value (PDPK1) was 0. For the same molecule, the “number of time points” value (PIK4CA) was 0, the “number of time points” value (PIK4CB) was 0 and the “number of time points” value (PLK1) was 0. For the same molecule, the “number of time points” value (PRKAA1) was 0.

In the case of `Cc1ccc(-c2ccc3c(ccc4sc5c(c43)NC[C@@H](C)NC5=O)n2)cn1` (10 µM), the “number of time points” value (NTRK3) is reported as 0, the “number of time points” value (PAK4) is reported as 0 and the “number of time points” value (PBK) is reported as 0. For the same molecule, the “number of time points” value (PDGFRB) was 0, the “number of time points” value (PDK1) was 0 and the “number of time points” value (PDPK1) was 0. For the same molecule, the “number of time points” value (PIK4CA) was 0, the “number of time points” value (PIK4CB) was 0 and the “number of time points” value (PLK1) was 0. For the same molecule, the “number of time points” value (PRKAA1) was 0.

In the case of `Cc1cccc(-c2[nH]ncc2-c2ccc3ncccc3n2)n1` (10 µM), the “number of time points” value (NTRK3) is reported as 0, the “number of time points” value (PAK4) is reported as 0 and the “number of time points” value (PBK) is reported as 0. For the same molecule, the “number of time points” value (PDGFRB) was 0, the “number of time points” value (PDK1) was 0 and the “number of time points” value (PDPK1) was 0. The “number of time points” value (PIK4CA) was 0, the “number of time points” value (PIK4CB) was 0 and the “number of time points” value (PLK1) was 0. The “number of time points” value (PRKAA1) was 0.

`CCOc1ccccc1C=C1C(=O)Nc2ccccc21` (10 µM) was tested, and the “number of time points” value (NTRK3) was 1, the “number of time points” value (PAK4) was 0 and the “number of time points” value (PBK) was 0. For the same molecule, the “number of time points” value (PDGFRB) was 0, the “number of time points” value (PDK1) was 0 and the “number of time points” value (PDPK1) was 0. The “number of time points” value (PIK4CA) was 0, the “number of time points” value (PIK4CB) was 0 and the “number of time points” value (PLK1) was 0. The “number of time points” value (PRKAA1) was 0.

With `CN(C)Cc1cccc(N=C(c2ccccc2)c2c(O)[nH]c3cc(C(=O)N(C)C)ccc23)c1` (10 µM) the “number of time points” value (NTRK3) was 0, the “number of time points” value (PAK4) was 0 and the “number of time points” value (PBK) was 0. For the same molecule, the “number of time points” value (PDGFRB) was 0, the “number of time points” value (PDK1) was 0 and the “number of time points” value (PDPK1) was 0. For the same molecule, the “number of time points” value (PIK4CA) was 0, the “number of time points” value (PIK4CB) was 0 and the “number of time points” value (PLK1) was 0. For the same molecule, the “number of time points” value (PRKAA1) was 0.

For `Cc1cc(C(C)Nc2ccccc2)c2nc(N3CCOCC3)cc(=O)n2c1` (stereo not given) (10 µM), the “number of time points” value (NTRK3) was 0, the “number of time points” value (PAK4) was 0 and the “number of time points” value (PBK) was 0. The “number of time points” value (PDGFRB) was 0, the “number of time points” value (PDK1) was 0 and the “number of time points” value (PDPK1) was 0. The “number of time points” value (PIK4CA) was 0, the “number of time points” value (PIK4CB) was 0 and the “number of time points” value (PLK1) was 0. The “number of time points” value (PRKAA1) was 0.

In the case of `Nc1cc(C(F)(F)F)c(-c2nc(N3CCOCC3)nc(N3CCOCC3)n2)cn1` [Bimiralisib] (10 µM), the “number of time points” value (NTRK3) is reported as 4, the “number of time points” value (PAK4) is reported as 0 and the “number of time points” value (PBK) is reported as 0. The “number of time points” value (PDGFRB) was 1, the “number of time points” value (PDK1) was 0 and the “number of time points” value (PDPK1) was 4. For the same molecule, the “number of time points” value (PIK4CA) was 3, the “number of time points” value (PIK4CB) was 3 and the “number of time points” value (PLK1) was 0. The “number of time points” value (PRKAA1) was 1.

`Cc1cc2cc(Oc3ccnc(Nc4cccc(CS(=O)(=O)NCCN(C)C)c4)n3)ccc2[nH]1` [Sulfatinib] (10 µM) was tested, and the “number of time points” value (NTRK3) was 0, the “number of time points” value (PAK4) was 0 and the “number of time points” value (PBK) was 0. The “number of time points” value (PDGFRB) was 0, the “number of time points” value (PDK1) was 0 and the “number of time points” value (PDPK1) was 4. The “number of time points” value (PIK4CA) was 0, the “number of time points” value (PIK4CB) was 0 and the “number of time points” value (PLK1) was 0. The “number of time points” value (PRKAA1) was 0.

In the case of `C=CC(=O)Nc1cccc(-n2c(=O)cc(C)c3cnc(Nc4ccc(OCCN(C)C)cc4OC)nc32)c1` (10 µM), the “number of time points” value (NTRK3) is reported as 0, the “number of time points” value (PAK4) is reported as 0 and the “number of time points” value (PBK) is reported as 0. For the same molecule, the “number of time points” value (PDGFRB) was 0, the “number of time points” value (PDK1) was 0 and the “number of time points” value (PDPK1) was 0. For the same molecule, the “number of time points” value (PIK4CA) was 0, the “number of time points” value (PIK4CB) was 0 and the “number of time points” value (PLK1) was 0. For the same molecule, the “number of time points” value (PRKAA1) was 0.

For `CC[C@@H]1[C@H](F)C(=O)N[C@@H]1COc1nccc2cc(C(N)=O)c(OC)cc12` (10 µM), the “number of time points” value (NTRK3) was 0, the “number of time points” value (PAK4) was 0 and the “number of time points” value (PBK) was 0. For the same molecule, the “number of time points” value (PDGFRB) was 0, the “number of time points” value (PDK1) was 0 and the “number of time points” value (PDPK1) was 0. The “number of time points” value (PIK4CA) was 0, the “number of time points” value (PIK4CB) was 0 and the “number of time points” value (PLK1) was 0. For the same molecule, the “number of time points” value (PRKAA1) was 0.

`O=C(O)c1ccc(-c2c[nH]c3ncc(-c4ccccc4)cc23)cc1C1CCCC1` (2.5 µM) was tested, and the “number of time points” value (NTRK3) was 0, the “number of time points” value (PAK4) was 0 and the “number of time points” value (PBK) was 0. The “number of time points” value (PDGFRB) was 0, the “number of time points” value (PDK1) was 0 and the “number of time points” value (PDPK1) was 0. For the same molecule, the “number of time points” value (PIK4CA) was 0, the “number of time points” value (PIK4CB) was 0 and the “number of time points” value (PLK1) was 0. For the same molecule, the “number of time points” value (PRKAA1) was 0.
